The target of this experiment is LOX-GFP (wild-type lysyl oxidase fused to GFP) (mouse) (UniProt P28301). The experiment in a line: affinity purification with mass spectrometry; GFP fusion proteins precipitated with GFP-Trap agarose beads overnight at 4 °C from 45 ml culture medium of stably expressing MDA-MB-231 cells; co-precipitated proteins from gel slices by LC-MS/MS.

Amino acid sequences for entries named in this document (tags omitted). A change or cut given only in a name is not applied to a line headed by its entry. Residues count along the entry.
UniProt P28301: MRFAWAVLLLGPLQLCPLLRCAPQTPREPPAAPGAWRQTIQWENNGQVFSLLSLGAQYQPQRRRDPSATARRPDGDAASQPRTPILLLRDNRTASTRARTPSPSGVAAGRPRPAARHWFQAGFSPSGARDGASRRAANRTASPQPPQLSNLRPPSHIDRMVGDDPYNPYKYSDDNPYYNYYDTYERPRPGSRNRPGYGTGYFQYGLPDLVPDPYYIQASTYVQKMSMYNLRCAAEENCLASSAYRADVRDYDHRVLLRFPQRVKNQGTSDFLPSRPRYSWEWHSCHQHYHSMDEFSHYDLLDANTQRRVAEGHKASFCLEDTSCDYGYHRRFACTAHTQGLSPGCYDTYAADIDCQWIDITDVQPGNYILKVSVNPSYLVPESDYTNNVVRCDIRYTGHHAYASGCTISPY
UniProt P55268, residues 33-1798: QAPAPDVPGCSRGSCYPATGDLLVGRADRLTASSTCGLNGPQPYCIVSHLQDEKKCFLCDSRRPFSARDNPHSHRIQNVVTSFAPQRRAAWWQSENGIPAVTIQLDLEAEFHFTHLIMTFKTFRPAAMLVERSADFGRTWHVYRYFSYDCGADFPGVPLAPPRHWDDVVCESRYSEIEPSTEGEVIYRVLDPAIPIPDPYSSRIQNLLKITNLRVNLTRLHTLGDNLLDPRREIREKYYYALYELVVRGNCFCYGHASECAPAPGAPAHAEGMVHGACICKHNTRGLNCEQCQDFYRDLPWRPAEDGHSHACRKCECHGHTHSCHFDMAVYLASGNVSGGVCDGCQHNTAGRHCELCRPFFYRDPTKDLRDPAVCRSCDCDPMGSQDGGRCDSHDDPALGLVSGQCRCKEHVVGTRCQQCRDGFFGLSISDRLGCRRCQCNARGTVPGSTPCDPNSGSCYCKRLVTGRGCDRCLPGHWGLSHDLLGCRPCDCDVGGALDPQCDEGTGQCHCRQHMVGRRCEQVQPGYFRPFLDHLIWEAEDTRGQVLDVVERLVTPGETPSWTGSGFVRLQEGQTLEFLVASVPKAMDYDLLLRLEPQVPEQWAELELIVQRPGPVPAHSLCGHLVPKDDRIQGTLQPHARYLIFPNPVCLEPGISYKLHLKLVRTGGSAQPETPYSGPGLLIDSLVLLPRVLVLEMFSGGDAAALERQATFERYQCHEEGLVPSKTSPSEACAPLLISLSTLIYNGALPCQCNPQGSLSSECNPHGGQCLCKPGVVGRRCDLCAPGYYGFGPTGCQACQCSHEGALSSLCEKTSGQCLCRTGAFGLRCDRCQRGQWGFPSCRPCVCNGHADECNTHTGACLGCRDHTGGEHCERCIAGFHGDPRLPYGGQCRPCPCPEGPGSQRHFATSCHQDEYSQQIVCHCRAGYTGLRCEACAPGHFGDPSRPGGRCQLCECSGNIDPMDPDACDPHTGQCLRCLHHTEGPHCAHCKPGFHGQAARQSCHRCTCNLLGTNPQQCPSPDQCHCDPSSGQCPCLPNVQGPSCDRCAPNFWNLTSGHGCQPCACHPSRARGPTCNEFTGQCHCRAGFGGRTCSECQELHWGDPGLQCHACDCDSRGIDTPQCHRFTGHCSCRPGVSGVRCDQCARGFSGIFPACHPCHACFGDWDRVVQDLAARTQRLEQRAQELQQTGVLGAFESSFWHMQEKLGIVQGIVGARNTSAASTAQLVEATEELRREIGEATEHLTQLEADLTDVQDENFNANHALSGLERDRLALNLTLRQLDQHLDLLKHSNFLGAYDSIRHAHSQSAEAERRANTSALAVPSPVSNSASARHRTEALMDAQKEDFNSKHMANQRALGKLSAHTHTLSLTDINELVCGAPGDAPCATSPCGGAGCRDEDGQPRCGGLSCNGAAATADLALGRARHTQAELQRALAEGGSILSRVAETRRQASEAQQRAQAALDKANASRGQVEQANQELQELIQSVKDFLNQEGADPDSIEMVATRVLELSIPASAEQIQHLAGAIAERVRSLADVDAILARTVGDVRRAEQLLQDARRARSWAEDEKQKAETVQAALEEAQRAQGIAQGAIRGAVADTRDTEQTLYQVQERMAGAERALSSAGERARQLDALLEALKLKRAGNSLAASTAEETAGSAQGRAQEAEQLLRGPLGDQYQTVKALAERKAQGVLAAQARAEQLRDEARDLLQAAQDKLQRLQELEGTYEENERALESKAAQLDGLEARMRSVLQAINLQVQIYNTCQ
UniProt P01137, residues 279-390: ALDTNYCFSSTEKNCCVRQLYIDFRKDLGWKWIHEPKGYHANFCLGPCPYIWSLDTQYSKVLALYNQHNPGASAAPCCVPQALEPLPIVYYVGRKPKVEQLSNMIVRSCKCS
UniProt P29279, residues 27-349: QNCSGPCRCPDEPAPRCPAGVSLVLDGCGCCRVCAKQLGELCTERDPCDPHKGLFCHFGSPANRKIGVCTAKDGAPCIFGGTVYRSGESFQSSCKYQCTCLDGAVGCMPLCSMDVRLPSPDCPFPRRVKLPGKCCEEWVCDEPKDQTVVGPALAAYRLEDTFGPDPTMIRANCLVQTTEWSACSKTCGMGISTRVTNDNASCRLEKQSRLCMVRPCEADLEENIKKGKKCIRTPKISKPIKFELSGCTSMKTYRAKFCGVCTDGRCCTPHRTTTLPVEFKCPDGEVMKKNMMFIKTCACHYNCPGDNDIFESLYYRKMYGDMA
UniProt P12109, residues 20-1028: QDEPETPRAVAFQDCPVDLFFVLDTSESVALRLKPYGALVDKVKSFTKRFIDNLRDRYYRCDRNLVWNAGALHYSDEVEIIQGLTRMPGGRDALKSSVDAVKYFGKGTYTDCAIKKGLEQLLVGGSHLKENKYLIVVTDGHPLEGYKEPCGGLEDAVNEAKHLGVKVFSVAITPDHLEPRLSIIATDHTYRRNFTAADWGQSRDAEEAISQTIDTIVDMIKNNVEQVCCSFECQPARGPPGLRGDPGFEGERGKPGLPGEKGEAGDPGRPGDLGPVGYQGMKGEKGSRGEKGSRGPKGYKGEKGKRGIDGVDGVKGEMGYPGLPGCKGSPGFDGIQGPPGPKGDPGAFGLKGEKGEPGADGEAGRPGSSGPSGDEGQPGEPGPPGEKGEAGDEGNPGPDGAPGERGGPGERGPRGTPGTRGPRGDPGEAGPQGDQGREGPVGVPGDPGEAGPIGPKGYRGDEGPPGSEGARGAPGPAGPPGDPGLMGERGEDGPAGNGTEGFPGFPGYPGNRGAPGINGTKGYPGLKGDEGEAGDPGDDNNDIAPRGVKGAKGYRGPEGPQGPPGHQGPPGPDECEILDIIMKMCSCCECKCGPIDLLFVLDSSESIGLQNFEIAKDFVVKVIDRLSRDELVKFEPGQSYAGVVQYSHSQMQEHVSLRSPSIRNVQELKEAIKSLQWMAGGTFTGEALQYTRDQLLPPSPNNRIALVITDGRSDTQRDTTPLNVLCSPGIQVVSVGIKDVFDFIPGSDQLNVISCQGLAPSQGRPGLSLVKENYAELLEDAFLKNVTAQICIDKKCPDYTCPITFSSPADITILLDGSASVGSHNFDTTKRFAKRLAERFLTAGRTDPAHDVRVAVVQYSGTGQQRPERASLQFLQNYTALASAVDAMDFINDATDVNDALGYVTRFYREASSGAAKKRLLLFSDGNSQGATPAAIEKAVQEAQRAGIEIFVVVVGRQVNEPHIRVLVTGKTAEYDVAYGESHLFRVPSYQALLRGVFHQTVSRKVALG
UniProt P11047, residues 34-1609: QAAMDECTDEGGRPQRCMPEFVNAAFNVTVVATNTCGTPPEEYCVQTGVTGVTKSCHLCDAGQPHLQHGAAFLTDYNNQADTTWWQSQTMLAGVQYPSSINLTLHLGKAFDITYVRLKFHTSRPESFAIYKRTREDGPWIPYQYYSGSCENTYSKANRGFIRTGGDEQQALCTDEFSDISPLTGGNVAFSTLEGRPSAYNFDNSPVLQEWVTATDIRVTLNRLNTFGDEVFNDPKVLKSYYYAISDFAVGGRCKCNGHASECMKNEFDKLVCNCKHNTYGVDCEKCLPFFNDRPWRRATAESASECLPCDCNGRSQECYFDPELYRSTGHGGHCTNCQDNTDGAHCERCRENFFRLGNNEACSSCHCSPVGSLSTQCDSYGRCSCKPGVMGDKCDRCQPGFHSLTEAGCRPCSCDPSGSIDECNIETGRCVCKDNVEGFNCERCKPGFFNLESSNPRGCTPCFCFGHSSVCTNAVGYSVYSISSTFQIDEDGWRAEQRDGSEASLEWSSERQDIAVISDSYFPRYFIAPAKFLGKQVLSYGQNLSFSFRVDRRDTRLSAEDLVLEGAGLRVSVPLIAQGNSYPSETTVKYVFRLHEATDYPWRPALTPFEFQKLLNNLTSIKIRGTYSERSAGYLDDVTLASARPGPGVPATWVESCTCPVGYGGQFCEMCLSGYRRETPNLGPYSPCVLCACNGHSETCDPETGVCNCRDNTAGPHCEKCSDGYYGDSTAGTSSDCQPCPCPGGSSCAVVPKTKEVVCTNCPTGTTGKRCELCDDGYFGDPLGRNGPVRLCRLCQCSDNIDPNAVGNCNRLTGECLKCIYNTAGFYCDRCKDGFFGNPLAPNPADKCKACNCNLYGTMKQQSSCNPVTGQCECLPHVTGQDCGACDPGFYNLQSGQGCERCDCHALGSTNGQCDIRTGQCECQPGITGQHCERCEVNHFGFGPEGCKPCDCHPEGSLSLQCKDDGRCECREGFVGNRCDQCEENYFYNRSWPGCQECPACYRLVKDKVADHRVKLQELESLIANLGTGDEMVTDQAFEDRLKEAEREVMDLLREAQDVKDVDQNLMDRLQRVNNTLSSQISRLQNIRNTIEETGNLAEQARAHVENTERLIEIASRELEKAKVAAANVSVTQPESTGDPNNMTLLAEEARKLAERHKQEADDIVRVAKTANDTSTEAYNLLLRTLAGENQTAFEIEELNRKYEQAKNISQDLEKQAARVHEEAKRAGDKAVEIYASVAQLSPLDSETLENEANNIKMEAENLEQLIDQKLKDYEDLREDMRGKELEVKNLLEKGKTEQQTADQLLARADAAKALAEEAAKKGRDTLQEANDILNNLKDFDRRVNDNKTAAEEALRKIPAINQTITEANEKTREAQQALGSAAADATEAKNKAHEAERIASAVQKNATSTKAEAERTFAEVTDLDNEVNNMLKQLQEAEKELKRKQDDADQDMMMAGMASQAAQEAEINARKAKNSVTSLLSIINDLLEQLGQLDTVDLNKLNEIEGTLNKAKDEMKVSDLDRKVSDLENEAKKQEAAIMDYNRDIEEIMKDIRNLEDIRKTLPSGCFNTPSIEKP
UniProt Q92743, residues 23-480: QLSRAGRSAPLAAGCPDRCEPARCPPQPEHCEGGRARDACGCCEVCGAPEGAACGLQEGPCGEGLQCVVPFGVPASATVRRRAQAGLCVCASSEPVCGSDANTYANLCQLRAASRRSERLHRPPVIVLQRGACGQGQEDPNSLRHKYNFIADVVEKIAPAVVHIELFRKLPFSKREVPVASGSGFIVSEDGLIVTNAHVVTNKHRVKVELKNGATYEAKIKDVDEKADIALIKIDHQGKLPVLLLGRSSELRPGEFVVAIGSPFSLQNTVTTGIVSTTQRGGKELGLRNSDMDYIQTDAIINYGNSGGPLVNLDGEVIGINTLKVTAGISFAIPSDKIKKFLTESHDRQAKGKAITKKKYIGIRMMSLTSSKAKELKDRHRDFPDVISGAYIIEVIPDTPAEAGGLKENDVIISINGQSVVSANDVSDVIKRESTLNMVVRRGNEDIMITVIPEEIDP

Results are given in words; binding and its absence hold for the method and conditions named. Binding seen in cells or lysates may run through a third protein. A yes stands for co-enrichment or nearness to the bait. Other partners may have been found. No binding means not detected with the bait.

In the case of LAMB2 (from UniProt P55268 33-1798), the binding entry was “binds”.
In the case of “transforming growth factor β1 (TGFβ1) (from UniProt P01137 279-390) (ligand)”, the binding entry is on record as “no binding”.
The value for CTGF (from UniProt P29279 27-349) was “binds”.
As for COL6A1 (from UniProt P12109 20-1028), the entry is “binds”; as for LAMC1 (from UniProt P11047 34-1609), “binds”.
Take “HTRA1 (high-temperature requirement A serine peptidase 1) (from UniProt Q92743 23-480) (enzyme)”: the binding result is “binds”.

B1: GPC1 (protein, UniProt P35052 24-530)
chain: DPASKSRSCGEVRQIYGAKGFSLSDVPQAEISGEHLRICPQGYTCCTSEMEENLANRSHAELETALRDSSRVLQAMLATQLRSFDDHFQHLLNDSERTLQATFPGAFGELYTQNARAFRDLYSELRLYYRGANLHLEETLAEFWARLLERLFKQLHPQLLLPDDYLDCLGKQAEALRPFGEAPRELRLRATRAFVAARSFVQGLGVASDVVRKVAQVPLGPECSRAVMKLVYCAHCLGVPGARPCPDYCRNVLKGCLANQADLDAEWRNLLDSMVLITDKFWGTSGVESVIGSVHTWLAEAINALQDNRDTLTAKVIQGCGNPKVNPQGPGPEEKRRRGKLAPRERPPSGTLEKLVSEAKAQLRDVQDFWISLPGTLCSEKMALSTASDDRCWNGMARGRYLPEVMGDGLANQINNPEVEVDITKPDMTIRQQIMQLKIMTNRLRSAYNGNDVDFQDASDDGSGSGSGDGCLDDLCSRKVSRKSSSSRTPLTHALPGLSEQEGQKTS
Regarding B1, the binding result is reported as “binds”.

B2: Matrilin2 (MATN2) (protein, UniProt O00339 24-956)
chain: RERSRGRSISRGRHARTHPQTALLESSCENKRADLVFIIDSSRSVNTHDYAKVKEFIVDILQFLDIGPDVTRVGLLQYGSTVKNEFSLKTFKRKSEVERAVKRMRHLSTGTMTGLAIQYALNIAFSEAEGARPLRENVPRVIMIVTDGRPQDSVAEVAAKARDTGILIFAIGVGQVDFNTLKSIGSEPHEDHVFLVANFSQIETLTSVFQKKLCTAHMCSTLEHNCAHFCINIPGSYVCRCKQGYILNSDQTTCRIQDLCAMEDHNCEQLCVNVPGSFVCQCYSGYALAEDGKRCVAVDYCASENHGCEHECVNADGSYLCQCHEGFALNPDKKTCTKIDYCASSNHGCQHECVNTDDSYSCHCLKGFTLNPDKKTCRRINYCALNKPGCEHECVNMEESYYCRCHRGYTLDPNGKTCSRVDHCAQQDHGCEQLCLNTEDSFVCQCSEGFLINEDLKTCSRVDYCLLSDHGCEYSCVNMDRSFACQCPEGHVLRSDGKTCAKLDSCALGDHGCEHSCVSSEDSFVCQCFEGYILREDGKTCRRKDVCQAIDHGCEHICVNSDDSYTCECLEGFRLAEDGKRCRRKDVCKSTHHGCEHICVNNGNSYICKCSEGFVLAEDGRRCKKCTEGPIDLVFVIDGSKSLGEENFEVVKQFVTGIIDSLTISPKAARVGLLQYSTQVHTEFTLRNFNSAKDMKKAVAHMKYMGKGSMTGLALKHMFERSFTQGEGARPLSTRVPRAAIVFTDGRAQDDVSEWASKAKANGITMYAVGVGKAIEEELQEIASEPTNKHLFYAEDFSTMDEISEKLKKGICEALEDSDGRQDSPAGELPKTVQQPTESEPVTINIQDLLSCSNFAVQHRYLFEEDNLLRSTQKLSHSTKPSGSPLEEKHDQCKCENLIMFQNLANEEVRKLTQRLEEMTQRMEALENRLRYR
Turning to B2, the binding entry was “binds”.

B3: CCBE1 (protein, UniProt Q6UXH8 35-406)
chain: YREEPEDGDREICSESKIATTKYPCLKSSGELTTCYRKKCCKGYKFVLGQCIPEDYDVCAEAPCEQQCTDNFGRVLCTCYPGYRYDRERHRKREKPYCLDIDECASSNGTLCAHICINTLGSYRCECREGYIREDDGKTCTRGDKYPNDTGHEKSENMVKAGTCCATCKEFYQMKQTVLQLKQKIALLPNNAADLGKYITGDKVLASNTYLPGPPGLPGGQGPPGSPGPKGSPGFPGMPGPPGQPGPRGSMGPMGPSPDLSHIKQGRRGPVGPPGAPGRDGSKGERGAPGPRGSPGPPGSFDFLLLMLADIRNDITELQEKVFGHRTHSSAEEFPLPQEFPSYPEAMDLGSGDDHPRRTETRDLRAPRDFYP
For B3, the binding entry is recorded as “binds”.

(Values after publication PMC5399287.)
